Primary screen of a compound library

By UniProt entry, the sequences of proteins in these tests, tags left out.
UniProt E9BF75, entry or part of it: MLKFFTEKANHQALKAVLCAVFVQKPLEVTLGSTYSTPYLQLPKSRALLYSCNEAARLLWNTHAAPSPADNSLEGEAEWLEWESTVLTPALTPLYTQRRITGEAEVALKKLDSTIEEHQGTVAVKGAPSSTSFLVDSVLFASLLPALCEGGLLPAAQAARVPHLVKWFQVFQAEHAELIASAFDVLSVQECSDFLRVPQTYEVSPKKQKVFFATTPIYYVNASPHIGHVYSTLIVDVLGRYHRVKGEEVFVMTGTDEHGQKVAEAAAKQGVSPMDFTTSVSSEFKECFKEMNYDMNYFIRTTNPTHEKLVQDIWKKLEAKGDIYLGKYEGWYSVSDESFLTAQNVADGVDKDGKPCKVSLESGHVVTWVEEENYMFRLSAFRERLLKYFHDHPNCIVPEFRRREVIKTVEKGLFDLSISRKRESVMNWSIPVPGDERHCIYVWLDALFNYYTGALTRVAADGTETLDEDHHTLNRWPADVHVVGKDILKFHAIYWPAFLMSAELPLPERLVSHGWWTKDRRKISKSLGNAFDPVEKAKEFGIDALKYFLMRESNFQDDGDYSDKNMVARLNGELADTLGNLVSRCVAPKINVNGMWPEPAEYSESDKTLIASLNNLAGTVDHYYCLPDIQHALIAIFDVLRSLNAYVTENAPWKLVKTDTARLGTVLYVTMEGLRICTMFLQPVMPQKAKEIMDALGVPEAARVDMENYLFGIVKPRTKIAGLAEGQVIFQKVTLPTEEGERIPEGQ

LdMetRS: 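Methionyl-tRNA synthetase (putative), Leishmania donovani (UniProt E9BF75). Primary screen of methionyl-tRNA synthetase; the read-out is not stated. The test concentration is not given. The values are filed as inhibition. Of about 68,000 compounds tested this way, about 24 (0.035%) reached 50% or more in at least one test.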
Mtb heat-shock: 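Assay on Mycobacterium tuberculosis, filed only as a heat shock assay from Cornell; the read-out is not stated. The concentration is filed as 10 mM, unlikely as a test dose, so the dose is not known. Higher reads as stronger inhibition (inferred: compounds with an IC50 in retests scored well above the rest). Size under these conditions: about 69,000 compounds, about 930 of them at 50% or above in at least one test.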

All values are in %.
How 0% and 100% were set is not recorded. Most values in the screen are low, and negative values occur.
Compounds were drawn at random from those tested, without regard to their results.
A dash means the value is not listed here; it may have been measured.

| compound | LdMetRS | Mtb heat-shock |
|---|---|---|
| `COc1ccc(C(=O)N(CCC#N)Cc2ccccn2)cc1` | 10.08% | -34.39% |
| `CC(C)Cc1cc(C(=O)NCC2CCN(c3ccccc3F)C2)on1` (stereo unspecified) | 22.3% | 13.01% |
| `Cc1nccc(-c2cccc(NCc3nc(C(C)C)no3)c2)n1` | 10.88% | -24.99% |
| `CCS(=O)(=O)N1CCc2c(COCCN(C)C)cncc2C1` | 9.819% | - |
| `O=C1CC(c2ccc(O)cc2)c2c(n3ccsc3nc2=O)N1` (stereo unspecified) | 12.42% | -6.393% |
| `[H][C@@]12CS(=O)(=O)C[C@]1([H])N(S(=O)(=O)c1cccc(F)c1)CCN2C(=O)CC` | - | 19.04% |
| `Cc1n[nH]cc1CNC(C(=O)N1CCOCC1)c1ccccc1` (stereo unspecified) | 0% | -28.01% |
| `CC1CCCCN1CCNC(=O)c1ccccc1N1CCOCC1` (stereo unspecified) | -0.7092% | -23.31% |
| `CCn1cc(NC(=O)Nc2ccc3c(c2)OCCO3)cn1` | 19.67% | -4.241% |
| `COCCN1CCOCC12CCN(C(=O)c1ccoc1)CC2` | 6.667% | - |
| `CCn1cc(CN2CCCC(c3[nH]ncc3S(C)(=O)=O)C2)cn1` (stereo unspecified) | 15.73% | -3.272% |
| `O=C(CC1CN(Cc2ccccc2)CCO1)NC1CCCC1` (stereo unspecified) | 12.38% | -14.55% |
| `CCNc1ncc(C(=O)NCCc2csc(CSC)n2)cn1` | 18.53% | -13.26% |
| `COc1cc(Nc2c(C#N)c(=O)n(C)c(=O)n2C)cc(OC)c1` | 9.964% | 17.75% |
| `Cc1cnc(C(=O)N(CCN(C)C)Cc2ccc(Cl)cc2)cn1` | 15.93% | 4.677% |
| `COc1cc(Oc2ccc(C(F)(F)F)cn2)ccc1CN1CCCC1` | 13.17% | -2.841% |
| `CCOCc1ccccc1NC(=O)NC1CCN(c2ncccn2)CC1` | 10% | 2.29% |
| `CN(C)C(=O)N1CCC(C2C(=O)Nc3ccccc32)CC1` (stereo unspecified) | 12.78% | 14.51% |
| `COCCC1COC2(CCN(C(C)=O)CC2)C1` (stereo unspecified) | 15.33% | 16.57% |
| `O=C(O)C(F)(F)F.[H][C@@]12COC[C@@H](C(=O)Nc3cnccn3)[C@]1([H])CN(C1CCCC1)C2` | - | 0.008322% |
| `Cc1cc(C)n(C2CCCN(C(=O)COCC(F)(F)F)C2)n1` (stereo unspecified) | 6.135% | -13.87% |
| `CNC(=O)c1cccc(CCNc2ccc(C#N)cn2)c1` | 5.013% | -9.727% |
| `COC1CN(C(=O)CC(C)(C)C)CCC(=O)N(C)c2ccccc21` (stereo unspecified) | 12.88% | 48.93% |
| `CN(C)CCOCc1nnc2n1CCN(CC1CC1)CC2` | 6.301% | - |
| `O=C1CCC2(CCN(Cc3cc(F)ccc3Cl)CC2)CN1C1CCCC1` | 8.78% | -1.032% |
| `CNC(=O)c1cccc(CNC(C)c2ccc(F)cc2N(C)C)c1` (stereo unspecified) | 11.5% | 101.5% |
| `N#Cc1ccccc1C(=O)N1C[C@H]2CC[C@@H]1CN(c1ncccn1)C2` | 3.344% | - |
| `CS(=O)(=O)N1CCc2ccc(=O)n(CC3CC3)c2CC1` | 11.35% | 16.72% |
| `CC(C)(C)c1nc(CN(CCO)Cc2cc(Br)ccc2F)no1` | 5.93% | -10.74% |
| `Cc1nnc(SCc2cccc(F)c2)n1CC(N)=O` | 13.77% | -2.847% |
| `O=C(NCC1CC1)C1CCC2(CCN(C(=O)c3ccco3)CC2)O1` (stereo unspecified) | 12.5% | 13.66% |
| `CCn1cc(NC(=O)N2CCN(C(=O)Oc3ccccc3)CC2)cn1` | 14.21% | 24.4% |
| `CN(C)CCN1CCCC12CCN(C(=O)c1ccco1)CC2` | 14.42% | - |
| `Cc1cnc(NS(=O)(=O)c2cccc(C#N)c2)s1` | 9.023% | -32.7% |
| `COCC(=O)Nc1ccc(N2CCC(OC)CC2)c(C(F)(F)F)c1` | 9.747% | -0.1308% |
| `Cn1nnc2c1CCN(S(C)(=O)=O)C2COCC1CC1` (stereo unspecified) | 12.11% | -20.08% |
| `CC(C)NC(=O)N1CCC2(C1)CN(c1ccsc1)C(=O)CN2C` (stereo unspecified) | 12.45% | - |
| `Cc1nsc(C(=O)NCCc2ccc(S(N)(=O)=O)cc2)n1` | 7.627% | 2.596% |
| `OCC(CO)N1CCC(c2nccnc2Nc2cnccn2)CC1` | 4.199% | 15.86% |
| `CC(Cc1cccnc1)Nc1ncnc2cccc(F)c12` (stereo unspecified) | 14.93% | 10.19% |
| `Cn1ccnc1CN1CCN(CC(O)c2ccc(F)c(F)c2)CC1` (stereo unspecified) | 2.834% | -8.347% |
| `COCC1CN(Cc2ccc(F)cc2)Cc2nn(C)cc21.O=C(O)C(F)(F)F` (stereo unspecified) | - | -19.82% |
| `O=C(Nc1ncn(CC(=O)N2CCCCCC2)n1)C1CCCC1` | 7.368% | 7.401% |
| `CC(=O)N1CCOC(c2c(C(=O)NCCN(C)C)sc3ccccc23)C1` (stereo unspecified) | 20.25% | -13.41% |
| `O[C@@H]1CCN(CC2CCOC2)[C@H]1Cc1ccccc1` (stereo partly specified) | 13.04% | - |
| `CSc1ccc(CNC(=O)Cc2c(C)n[nH]c2C)cc1` | 14.73% | 11.24% |
| `COC(=O)CCNC(=O)c1ccc(OCc2ccccc2)nc1` | 10.99% | -10.06% |
| `COc1cccc(-c2cc(C(=O)NCCn3nc(C)nc3C)[nH]n2)c1` | 15.25% | 6.602% |
| `COCC(=O)Nc1ccnn1-c1ccc(Cl)cc1` | 14.63% | 4.13% |

Repeated from the top, 6 entries:

- COc1ccc(C(=O)N(CCC#N)Cc2ccccn2)cc1 : LdMetRS: 10.08%; Mtb heat-shock: -34.39%
- CC(C)Cc1cc(C(=O)NCC2CCN(c3ccccc3F)C2)on1 (stereo unspecified) : LdMetRS: 22.3%; Mtb heat-shock: 13.01%
- Cc1nccc(-c2cccc(NCc3nc(C(C)C)no3)c2)n1 : LdMetRS: 10.88%; Mtb heat-shock: -24.99%
- CCS(=O)(=O)N1CCc2c(COCCN(C)C)cncc2C1 : LdMetRS: 9.819%
- O=C1CC(c2ccc(O)cc2)c2c(n3ccsc3nc2=O)N1 (stereo unspecified) : LdMetRS: 12.42%; Mtb heat-shock: -6.393%
- [H][C@@]12CS(=O)(=O)C[C@]1([H])N(S(=O)(=O)c1cccc(F)c1)CCN2C(=O)CC : Mtb heat-shock: 19.04%

The values are deposited in ChEMBL (CHEMBL3988442, “University of Dundee, Small-Polar-MMV Screening Library” (2021)).